PubChem BioAssay AID504744 | Drosophila RNAi Screening Center, 2011

Screen: 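Identify dsRNAs that increase or decrease phospho-dAkt after insulin treatment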 (primary screen)
Cell system: Drosophila Kc167 cells
Knock-down reagent: long dsRNA against Drosophila genes, 250 ng dsRNA per well of a 384-well plate
Duration: 3 days of knock-down, then overnight serum-free starvation before stimulation
Treatment: bovine insulin at 387 nM for 10 minutes after 12 h without serum
Read-out: 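In-cell antibody fluorescence for phospho-dAkt in each well over DNA-dye signal, with log2 residuals expressed as z-scores adjusted for cell count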
Hit rule: 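Hit in the insulin screen when the two-replicate mean z-score is more extreme than plus or minus 2.5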
The screen tested about 23,000 reagents; this is an unselected part of those with a known target gene and a result. In the full data, 98 (0.43%) got an active call. 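Only hit calls are given; the phospho-dAkt signals, z-scores and hit direction were not deposited.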 Names joined by + are all predicted targets of the reagent. Reagent sequences are not shown.

Target gene | DRSC id | Outcome
Slob | DRSC02296 | inactive
SmydA-2 | DRSC10296 | inactive
CG12851 | DRSC04131 | inactive
Gale | DRSC08234 | inactive
RpL41 | DRSC22958 | inactive
CG10317 | DRSC14229 | inactive
lncRNA:CR31526 | DRSC21520 | inactive
Spn85F | DRSC14545 | inactive
IntS11 | DRSC15407 | inactive
LeuRS-m | DRSC08595 | inactive
CG11400 | DRSC06070 | inactive
Sqor | DRSC08453 | inactive
mtt | DRSC05106 | inactive
mtt | DRSC05107 | inactive
mtt | DRSC06753 | inactive
mtt | DRSC07235 | inactive
Arl6IP1 | DRSC14231 | inactive
Fem-1 | DRSC07322 | inactive
CG13494 | DRSC04139 | inactive
CG11977 | DRSC14454 | active
CG3611 | DRSC04395 | inactive
CG7024 | DRSC18414 | inactive
ninaB | DRSC16807 | inactive
CG2955 | DRSC00552 | inactive
CG15482 | DRSC02492 | inactive
BomBc1 | DRSC06501 | inactive
CG15725 | DRSC19691 | inactive
CG17002 | DRSC04978 | inactive
CG15708 | DRSC06579 | inactive
eIF3e | DRSC11199 | inactive
l(3)05822 | DRSC16202 | inactive
lncRNA:CR32690 | DRSC22219 | inactive
Rift | DRSC14330 | inactive
CG14397 | DRSC02381 | inactive
CG34187 (retired record) | DRSC05543 | inactive
He + NimB5 | DRSC22876 | inactive
Gr22f | DRSC00076 | inactive
LBR | DRSC04298 | inactive
Rcd-1r + CG13102 | DRSC03266 | inactive
CG3770 | DRSC04416 | inactive
CG13185 | DRSC06310 | inactive
KrT95D | DRSC16725 | inactive
Vago | DRSC19833 | inactive
CG14535 | DRSC02393 | inactive
CG10280 | DRSC12133 | inactive
CG31230 | DRSC22130 | inactive
MstProx | DRSC12458 | inactive
MstProx | DRSC12601 | inactive
ry | DRSC17048 | inactive
CG33110 | DRSC14694 | inactive
CG33110 | DRSC16137 | inactive
CG11360 | DRSC17124 | inactive
CG11360 | DRSC17134 | inactive
ave | DRSC05502 | inactive
eIF4E6 | DRSC14853 | inactive
CG42795 | DRSC12772 | inactive
CG42795 | DRSC15533 | inactive
Naa35 | DRSC04447 | inactive
CG33332 | DRSC15504 | inactive
CG18301 | DRSC02662 | inactive
MED18 | DRSC18549 | inactive
Sk2 | DRSC08556 | inactive
Ing5 | DRSC03188 | inactive
flfl | DRSC16474 | inactive
CG33964 + CG13175 | DRSC06300 | inactive
CG33964 + CG13175 | DRSC06301 | inactive
CG33964 + CG13175 | DRSC07184 | inactive
Ir48a | DRSC05301 | inactive
Fdx2 | DRSC08306 | inactive
ken | DRSC04696 | inactive
TwdlP | DRSC14734 | inactive
Ciz1 | DRSC09675 | inactive
Wnt4 | DRSC00976 | inactive
Wnt4 | DRSC03477 | inactive
CG9215 | DRSC20171 | inactive
Chchd3 | DRSC16981 | inactive
Or2a | DRSC18690 | inactive
CG13312 | DRSC09983 | inactive
Arpc3A | DRSC15596 | inactive
Eig71Eg | DRSC11154 | inactive
Sln | DRSC07133 | inactive
CalpC | DRSC19873 | inactive
Vha100-1 | DRSC14148 | inactive
wrd | DRSC16337 | inactive
wrd | DRSC16344 | inactive
dpr9 | DRSC14534 | inactive
dpr9 | DRSC14985 | inactive
dpr9 | DRSC14986 | inactive
ND-MNLL | DRSC18159 | inactive
daed | DRSC00299 | inactive
Hip14 | DRSC10570 | inactive
CG18809 | DRSC19818 | inactive
pyx | DRSC08510 | inactive
pyx | DRSC08511 | inactive
CG10584 | DRSC11624 | inactive
CG32379 | DRSC10318 | inactive
CG30458 | DRSC06660 | inactive
ab | DRSC03478 | inactive
CG17329 | DRSC01926 | inactive
PMCA | DRSC17113 | inactive
PMCA | DRSC17114 | inactive
PMCA | DRSC17154 | inactive
Nipped-A | DRSC04882 | inactive
Nipped-A | DRSC04883 | inactive
Nipped-A | DRSC04884 | inactive
Nipped-A | DRSC07738 | inactive
Nipped-A | DRSC22386 | inactive
CG31999 | DRSC17131 | inactive
CG31999 | DRSC17133 | inactive
bab1 | DRSC08379 | inactive
bab1 | DRSC08709 | inactive
bab1 | DRSC21882 | inactive
CG33158 | DRSC09708 | inactive
CG33158 | DRSC09709 | inactive
CG33158 | DRSC10438 | inactive
U2af50 | DRSC20297 | inactive
U2af50 | DRSC22867 | inactive
clos | DRSC06240 | inactive
clos | DRSC06241 | inactive
clos | DRSC06778 | inactive
clos | DRSC21857 | inactive
clos | DRSC22942 | inactive
Elk | DRSC07608 | inactive
CG40005 (retired record) + cta | DRSC03763 | inactive
UQCR-11L | DRSC22166 | inactive
RanGAP | DRSC22003 | inactive
CG13912 | DRSC08381 | inactive
Cyfip | DRSC15679 | inactive
ninaC | DRSC03579 | inactive
CG5984 | DRSC15930 | inactive
CG12237 | DRSC19449 | inactive
CG12237 | DRSC22256 | inactive
scaf | DRSC04849 | inactive
Tbcb | DRSC06067 | inactive
Polr1D + DCTN6-p27 | DRSC02094 | inactive
Pino | DRSC00038 | inactive
Pino | DRSC00662 | inactive
Gs2 | DRSC20250 | inactive
CG9917 | DRSC20218 | inactive
CG10920 | DRSC17765 | inactive
CG5815 | DRSC14135 | inactive
CG9795 | DRSC12336 | inactive
mAcon1 | DRSC01853 | inactive
dpr6 | DRSC09005 | inactive
dpr6 | DRSC10162 | inactive
dpr6 | DRSC10163 | inactive
S-Lap4 | DRSC10957 | inactive
Lmpt | DRSC09450 | inactive
Lmpt | DRSC09864 | inactive
Lmpt | DRSC09865 | inactive
Lmpt | DRSC09866 | inactive
Lmpt | DRSC11107 | inactive
Lmpt | DRSC21738 | inactive
Lmpt | DRSC22921 | inactive
CG33493 | DRSC10642 | inactive
Buffy | DRSC05957 | inactive
CG32985 | DRSC02634 | inactive

Active calls, of those listed so far:
Target gene | DRSC id | Outcome
CG11977 | DRSC14454 | active
